# Experimental data reported in the supplement of paper PMC8728848.
# The other results are listed elsewhere or left out.
# B1: SRS6 (Toxoplasma gondii), Q9NH12 (protein)
# chain: MARTGSMQQRRGGFQTTARMLMAVCVSGVLLLSSGPSSANKLTEGQQNQNSGPGAATQEGPTIEGAVAKCVLKTTAAENGSSRAKNTTGLTLSKENLVVSLQCSGEKNAIVPKDQKKVCSAAPNAKVADCKGADTDKQVTLKSLLGTSGDIQWEKTIVSTDNKGEVMTLKIKESELPLFDKAFFVGCEEDKAQTRTSQATECKVNVSVKARPSTVGENNVVTCAYGKDSNPRPLEVEMSADNDTLTIDCGTDGSLKPTKYTEEFCVTDNSQLESCTTKKFSEILPTFLPSWWVSDSQNGSAKLTIPESGFPEEQQQFRLGCVPKKTTQSPQANPSVKTEKEEGAQNTDASTSNCSVIVTVKASNFSSLASSIAPTAAVAGGAAALTGFLVGSF
# How the values were obtained:
# Assay in all cases: glycan array binding signal (z-score within array); higher = stronger binding
# Conditions in all cases: glycan notation: IUPAC condensed, linker removed
# Fuc(a1-2)Gal = target: Fuc(a1-2)Gal
# Outline: (§1)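 The binding signal is a Z-score computed within each array and averaged over linkers. Arrays of the same protein sequence at different concentrations or buffers were also averaged together. Data originate from 3228 arrays in the Consortium for Functional Glycomics database, kept only where the protein sequence was available.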
# Fuc(a1-2)Gal(b1-3)GalNAc = target: Fuc(a1-2)Gal(b1-3)GalNAc
# Outline: as §1
# [1] = target: Fuc(a1-2)Gal(b1-3)GalNAc(a1-3)[Fuc(a1-2)]Gal(b1-4)Glc
# Outline: as §1
# [2] = target: Fuc(a1-2)Gal(b1-3)GalNAc(a1-3)[Fuc(a1-2)]Gal(b1-4)GlcNAc
# Outline: as §1
# [3] = target: Fuc(a1-2)Gal(b1-3)GalNAc(b1-3)Gal
# Outline: as §1
# [4] = target: Fuc(a1-2)Gal(b1-3)GalNAc(b1-3)Gal(a1-4)Gal(b1-4)Glc
# Outline: as §1
# [5] = target: Fuc(a1-2)Gal(b1-3)GalNAc(b1-4)[Neu5Ac(a2-3)]Gal(b1-4)Glc
# Outline: as §1
# Fuc(a1-2)Gal(b1-3)GlcNAc = target: Fuc(a1-2)Gal(b1-3)GlcNAc
# Outline: as §1
# [6] = target: Fuc(a1-2)Gal(b1-3)GlcNAc(b1-2)Man(a1-3)[Fuc(a1-2)Gal(b1-3)GlcNAc(b1-2)Man(a1-6)]Man(b1-4)GlcNAc(b1-4)GlcNAc
# Outline: as §1
# [7] = target: Fuc(a1-2)Gal(b1-3)GlcNAc(b1-3)Gal(b1-4)Glc
# Outline: as §1
# [8] = target: Fuc(a1-2)Gal(b1-3)GlcNAc(b1-3)[Fuc(a1-3)[Gal(b1-4)]GlcNAc(b1-6)]Gal(b1-4)Glc
# Outline: as §1
# [9] = target: Fuc(a1-2)Gal(b1-3)[Fuc(a1-4)]GlcNAc
# Outline: as §1
# [10] = target: Fuc(a1-2)Gal(b1-3)[Fuc(a1-4)]GlcNAc(b1-2)Man(a1-3)[Fuc(a1-2)Gal(b1-3)[Fuc(a1-4)]GlcNAc(b1-2)Man(a1-6)]Man(b1-4)GlcNAc(b1-4)GlcNAc
# Outline: as §1
# [11] = target: Fuc(a1-2)Gal(b1-3)[Fuc(a1-4)]GlcNAc(b1-3)[Fuc(a1-3)[Gal(b1-4)]GlcNAc(b1-6)]Gal(b1-4)Glc
# Outline: as §1
# [12] = target: Fuc(a1-2)Gal(b1-3)[Fuc(a1-4)]GlcNAc(b1-3)[Gal(b1-4)GlcNAc(b1-6)]Gal(b1-4)Glc
# Outline: as §1
# Fuc(a1-2)Gal(b1-4)Glc = target: Fuc(a1-2)Gal(b1-4)Glc
# Outline: as §1
# Fuc(a1-2)Gal(b1-4)Glc6S = target: Fuc(a1-2)Gal(b1-4)Glc6S
# Outline: as §1
# Fuc(a1-2)Gal(b1-4)GlcNAc = target: Fuc(a1-2)Gal(b1-4)GlcNAc
# Outline: as §1
# [13] = target: Fuc(a1-2)Gal(b1-4)GlcNAc(b1-2)Man(a1-3)[Fuc(a1-2)Gal(b1-4)GlcNAc(b1-2)Man(a1-6)]Man(b1-4)GlcNAc(b1-4)GlcNAc
# Outline: as §1
# [14] = target: Fuc(a1-2)Gal(b1-4)GlcNAc(b1-3)Gal(b1-4)GlcNAc
# Outline: as §1
# [15] = target: Fuc(a1-2)Gal(b1-4)GlcNAc(b1-3)Gal(b1-4)GlcNAc(b1-3)Gal(b1-4)GlcNAc
# Outline: as §1
# [16] = target: Fuc(a1-2)Gal(b1-4)GlcNAc(b1-3)GalNAc
# Outline: as §1
# [17] = target: Fuc(a1-2)Gal(b1-4)GlcNAc6S
# Outline: as §1
# [18] = target: Fuc(a1-2)Gal(b1-4)[Fuc(a1-3)]GlcNAc
# Outline: as §1
# [19] = target: Fuc(a1-2)Gal(b1-4)[Fuc(a1-3)]GlcNAc(b1-2)Man(a1-3)[Fuc(a1-2)Gal(b1-4)[Fuc(a1-3)]GlcNAc(b1-2)Man(a1-6)]Man(b1-4)GlcNAc(b1-4)GlcNAc
# Outline: as §1
# [20] = target: Fuc(a1-2)Gal(b1-4)[Fuc(a1-3)]GlcNAc(b1-3)Gal(b1-4)[Fuc(a1-3)]GlcNAc
# Outline: as §1
# [21] = target: Fuc(a1-2)Gal(b1-4)[Fuc(a1-3)]GlcNAc(b1-3)Gal(b1-4)[Fuc(a1-3)]GlcNAc(b1-3)Gal(b1-4)[Fuc(a1-3)]GlcNAc
# Outline: as §1
# Fuc(a1-2)Gal6S(b1-4)Glc = target: Fuc(a1-2)Gal6S(b1-4)Glc
# Outline: as §1
# [22] = target: Fuc(a1-2)Gal6S(b1-4)Glc6S
# Outline: as §1
# [23] = target: Fuc(a1-2)Gal6S(b1-4)GlcNAc
# Outline: as §1
# Fuc(a1-2)[Gal(a1-3)]Gal = target: Fuc(a1-2)[Gal(a1-3)]Gal
# Outline: as §1
# [24] = target: Fuc(a1-2)[Gal(a1-3)]Gal(b1-3)GlcNAc
# Outline: as §1
# [25] = target: Fuc(a1-2)[Gal(a1-3)]Gal(b1-3)GlcNAc(b1-2)Man(a1-3)[Fuc(a1-2)[Gal(a1-3)]Gal(b1-3)GlcNAc(b1-2)Man(a1-6)]Man(b1-4)GlcNAc(b1-4)GlcNAc
# Outline: as §1
# [26] = target: Fuc(a1-2)[Gal(a1-3)]Gal(b1-4)Glc
# Outline: as §1
# [27] = target: Fuc(a1-2)[Gal(a1-3)]Gal(b1-4)GlcNAc
# Outline: as §1
# [28] = target: Fuc(a1-2)[Gal(a1-3)]Gal(b1-4)GlcNAc(b1-2)Man(a1-3)[Fuc(a1-2)[Gal(a1-3)]Gal(b1-4)GlcNAc(b1-2)Man(a1-6)]Man(b1-4)GlcNAc(b1-4)GlcNAc
# Outline: as §1
# [29] = target: Fuc(a1-2)[Gal(a1-3)]Gal(b1-4)[Fuc(a1-3)]GlcNAc
# Outline: as §1
# [30] = target: Fuc(a1-2)[Gal(a1-4)]Gal(b1-4)GlcNAc
# Outline: as §1
# [31] = target: Fuc(a1-2)[GalNAc(a1-3)]Gal
# Outline: as §1
# [32] = target: Fuc(a1-2)[GalNAc(a1-3)]Gal(b1-3)GalNAc(a1-3)[Fuc(a1-2)]Gal(b1-4)GlcNAc
# Outline: as §1
# [33] = target: Fuc(a1-2)[GalNAc(a1-3)]Gal(b1-3)GlcNAc
# Outline: as §1
# [34] = target: Fuc(a1-2)[GalNAc(a1-3)]Gal(b1-3)GlcNAc(b1-2)Man(a1-3)[Fuc(a1-2)[GalNAc(a1-3)]Gal(b1-3)GlcNAc(b1-2)Man(a1-6)]Man(b1-4)GlcNAc(b1-4)GlcNAc
# Outline: as §1
# [35] = target: Fuc(a1-2)[GalNAc(a1-3)]Gal(b1-4)Glc
# Outline: as §1
# [36] = target: Fuc(a1-2)[GalNAc(a1-3)]Gal(b1-4)GlcNAc
# Outline: as §1
# [37] = target: Fuc(a1-2)[GalNAc(a1-3)]Gal(b1-4)GlcNAc(b1-2)Man(a1-3)[Fuc(a1-2)[GalNAc(a1-3)]Gal(b1-4)GlcNAc(b1-2)Man(a1-6)]Man(b1-4)GlcNAc(b1-4)GlcNAc
# Outline: as §1
# [38] = target: Fuc(a1-2)[GalNAc(a1-3)]Gal(b1-4)GlcNAc(b1-3)Gal(b1-4)GlcNAc
# Outline: as §1
# [39] = target: Fuc(a1-2)[GalNAc(a1-3)]Gal(b1-4)GlcNAc(b1-3)Gal(b1-4)GlcNAc(b1-3)Gal(b1-4)GlcNAc
# Outline: as §1
# [40] = target: Fuc(a1-2)[GalNAc(a1-3)]Gal(b1-4)[Fuc(a1-3)]GlcNAc
# Outline: as §1
# [41] = target: Fuc(a1-2)[GalNAc(a1-4)]Gal(b1-4)GlcNAc
# Outline: as §1
# [42] = target: Fuc(a1-2)[GalNAc(b1-3)]Gal
# Outline: as §1
# Fuc(a1-3)GlcNAc = target: Fuc(a1-3)GlcNAc
# Outline: as §1
# [43] = target: Fuc(a1-3)[Gal(b1-4)]Glc6S
# Outline: as §1
# [44] = target: Fuc(a1-3)[Gal(b1-4)]GlcNAc
# Outline: as §1
# [45] = target: Fuc(a1-3)[Gal(b1-4)]GlcNAc(b1-2)Man(a1-3)[Fuc(a1-3)[Gal(b1-4)]GlcNAc(b1-2)Man(a1-6)]Man(b1-4)GlcNAc(b1-4)GlcNAc
# Outline: as §1
# [46] = target: Fuc(a1-3)[Gal(b1-4)]GlcNAc(b1-3)Gal(b1-3)[Fuc(a1-4)]GlcNAc
# Outline: as §1
# [47] = target: Fuc(a1-3)[Gal(b1-4)]GlcNAc(b1-3)GalNAc
# Outline: as §1
# [48] = target: Fuc(a1-3)[Gal(b1-4)]GlcNAc(b1-4)Gal(b1-4)[Fuc(a1-3)]GlcNAc
# Outline: as §1
# [49] = target: Fuc(a1-3)[Gal(b1-4)]GlcNAc(b1-4)Gal(b1-4)[Fuc(a1-3)]GlcNAc(b1-4)Gal(b1-4)[Fuc(a1-3)]GlcNAc
# Outline: as §1
# [50] = target: Fuc(a1-3)[Gal(b1-4)]GlcNAc(b1-6)[Gal(b1-3)GlcNAc(b1-3)]Gal(b1-4)Glc
# Outline: as §1
# [51] = target: Fuc(a1-3)[Gal(b1-4)]GlcNAc6S
# Outline: as §1
binder,measurement,setting,value
B1,glycan array binding signal (z-score),Fuc(a1-2)Gal,0.603
same,glycan array binding signal (z-score),Fuc(a1-2)Gal(b1-3)GalNAc,0.36
same,glycan array binding signal (z-score),[1],-0.705
same,glycan array binding signal (z-score),[2],0.163
same,glycan array binding signal (z-score),[3],1.86
same,glycan array binding signal (z-score),[4],0.811
same,glycan array binding signal (z-score),[5],-0.56
same,glycan array binding signal (z-score),Fuc(a1-2)Gal(b1-3)GlcNAc,-0.439
same,glycan array binding signal (z-score),[6],-0.117
same,glycan array binding signal (z-score),[7],-0.143
same,glycan array binding signal (z-score),[8],-0.921
same,glycan array binding signal (z-score),[9],-0.013
same,glycan array binding signal (z-score),[10],-0.585
same,glycan array binding signal (z-score),[11],-0.134
same,glycan array binding signal (z-score),[12],0.276
same,glycan array binding signal (z-score),Fuc(a1-2)Gal(b1-4)Glc,0.023
same,glycan array binding signal (z-score),Fuc(a1-2)Gal(b1-4)Glc6S,0.034
same,glycan array binding signal (z-score),Fuc(a1-2)Gal(b1-4)GlcNAc,0.092
same,glycan array binding signal (z-score),[13],1.71
same,glycan array binding signal (z-score),[14],-0.493
same,glycan array binding signal (z-score),[15],-0.175
same,glycan array binding signal (z-score),[16],0.033
same,glycan array binding signal (z-score),[17],0.609
same,glycan array binding signal (z-score),[18],0.016
same,glycan array binding signal (z-score),[19],-0.065
same,glycan array binding signal (z-score),[20],-0.608
same,glycan array binding signal (z-score),[21],-0.156
same,glycan array binding signal (z-score),Fuc(a1-2)Gal6S(b1-4)Glc,-0.193
same,glycan array binding signal (z-score),[22],0.998
same,glycan array binding signal (z-score),[23],-0.136
same,glycan array binding signal (z-score),Fuc(a1-2)[Gal(a1-3)]Gal,-0.077
same,glycan array binding signal (z-score),[24],-0.411
same,glycan array binding signal (z-score),[25],-0.263
same,glycan array binding signal (z-score),[26],-0.753
same,glycan array binding signal (z-score),[27],-0.624
same,glycan array binding signal (z-score),[28],0.219
same,glycan array binding signal (z-score),[29],0.039
same,glycan array binding signal (z-score),[30],-0.08
same,glycan array binding signal (z-score),[31],-0.123
same,glycan array binding signal (z-score),[32],-0.633
same,glycan array binding signal (z-score),[33],-0.195
same,glycan array binding signal (z-score),[34],-0.377
same,glycan array binding signal (z-score),[35],-0.184
same,glycan array binding signal (z-score),[36],-0.237
same,glycan array binding signal (z-score),[37],0.609
same,glycan array binding signal (z-score),[38],0.238
same,glycan array binding signal (z-score),[39],-0.105
same,glycan array binding signal (z-score),[40],0.175
same,glycan array binding signal (z-score),[41],-0.676
same,glycan array binding signal (z-score),[42],0.58
same,glycan array binding signal (z-score),Fuc(a1-3)GlcNAc,0.492
same,glycan array binding signal (z-score),[43],0.505
same,glycan array binding signal (z-score),[44],-0.325
same,glycan array binding signal (z-score),[45],1.58
same,glycan array binding signal (z-score),[46],0.049
same,glycan array binding signal (z-score),[47],-0.397
same,glycan array binding signal (z-score),[48],-0.045
same,glycan array binding signal (z-score),[49],-0.089
same,glycan array binding signal (z-score),[50],-0.373
same,glycan array binding signal (z-score),[51],0.259

# Reprinted at random: four records from the list
binder,measurement,setting,value
B1,glycan array binding signal (z-score),Fuc(a1-2)[Gal(a1-3)]Gal,-0.077
same,glycan array binding signal (z-score),[3],1.86
same,glycan array binding signal (z-score),[18],0.016
same,glycan array binding signal (z-score),[34],-0.377
